Values quoted from earlier work as cited in US11161828B2, “Class of bisquaternary ammonium compound as well as the preparative method and the use thereof” (WEST CHINA HOSPITAL, SICHUAN UNIVERSITY, priority 2018, dated 2021).
Some results were stated once for a whole list of compounds, not compound by compound.

Tested on: human body
Details: after single administration, clinical use; cited from earlier work

COc1ccc(C[C@@H]2c3cc(OC)c(OC)cc3CC[N@+]2(C)CCC(=O)OCCCCCOC(=O)CC[N@@+]2(C)CCc3cc(OC)c(OC)cc3[C@H]2Cc2ccc(OC)c(OC)c2)cc1OC [Cisatracurium, reference compound]
duration of muscle relaxation / action time: 40 to 60 min
